Laboratory results: patent US20240366624A1, “METHODS AND COMPOSITIONS FOR TREATING THROMBOTIC DISEASE” (Washington University, priority 2023, published 2024)

Sequences of proteins named here, by UniProt entry; tags and fusion partners are left off. Residues count along the entry.
UniProt P07237, residues 18-508: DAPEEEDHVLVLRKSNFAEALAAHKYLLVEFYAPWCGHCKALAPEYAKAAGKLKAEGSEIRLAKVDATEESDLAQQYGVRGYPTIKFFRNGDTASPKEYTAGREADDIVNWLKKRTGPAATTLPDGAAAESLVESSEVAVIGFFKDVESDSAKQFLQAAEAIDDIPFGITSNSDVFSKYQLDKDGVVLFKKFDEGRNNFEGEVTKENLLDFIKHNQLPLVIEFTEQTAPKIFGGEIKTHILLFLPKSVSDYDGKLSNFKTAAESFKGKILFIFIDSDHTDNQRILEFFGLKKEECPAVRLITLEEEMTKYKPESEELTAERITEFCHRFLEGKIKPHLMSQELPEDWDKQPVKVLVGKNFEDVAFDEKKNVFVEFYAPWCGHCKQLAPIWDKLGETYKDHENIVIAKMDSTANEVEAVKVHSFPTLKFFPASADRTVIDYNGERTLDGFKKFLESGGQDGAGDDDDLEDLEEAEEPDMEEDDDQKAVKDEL

T1: human platelet ERO1α (human) (UniProt Q96HE7)
T1 sequence (looked up): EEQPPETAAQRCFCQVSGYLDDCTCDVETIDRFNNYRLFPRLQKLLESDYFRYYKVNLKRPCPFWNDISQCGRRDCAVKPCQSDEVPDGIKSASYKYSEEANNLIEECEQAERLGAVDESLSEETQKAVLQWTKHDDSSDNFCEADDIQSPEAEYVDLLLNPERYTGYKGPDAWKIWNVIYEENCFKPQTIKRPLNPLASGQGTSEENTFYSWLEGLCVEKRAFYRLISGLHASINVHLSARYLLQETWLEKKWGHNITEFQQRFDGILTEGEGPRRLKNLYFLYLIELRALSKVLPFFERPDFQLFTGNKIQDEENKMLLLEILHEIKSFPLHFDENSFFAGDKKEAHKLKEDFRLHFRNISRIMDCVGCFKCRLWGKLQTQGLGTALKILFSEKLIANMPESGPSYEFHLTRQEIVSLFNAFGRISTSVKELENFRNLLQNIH

T2: human platelet ERO1α (human), Q96HE7
T2 chain: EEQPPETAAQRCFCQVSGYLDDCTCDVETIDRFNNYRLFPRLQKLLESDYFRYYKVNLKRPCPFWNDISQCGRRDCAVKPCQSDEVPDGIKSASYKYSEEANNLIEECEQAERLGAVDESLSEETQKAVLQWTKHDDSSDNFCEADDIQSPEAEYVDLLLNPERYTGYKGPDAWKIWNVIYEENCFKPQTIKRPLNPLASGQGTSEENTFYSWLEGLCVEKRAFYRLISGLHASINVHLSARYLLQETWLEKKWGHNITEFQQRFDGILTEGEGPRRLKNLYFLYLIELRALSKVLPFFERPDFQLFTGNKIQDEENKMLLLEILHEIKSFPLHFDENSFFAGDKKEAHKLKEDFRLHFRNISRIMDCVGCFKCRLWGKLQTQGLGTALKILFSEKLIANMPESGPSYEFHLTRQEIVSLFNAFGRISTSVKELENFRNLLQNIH


Legend:
[1] = target: T1, human platelet ERO1α (human); experiment: co-immunoprecipitation of ERO1α from lysates of resting and thrombin-activated human platelets, mass spectrometry; volcano plot thrombin versus no thrombin
[2] = target: human platelet PDI (protein disulfide isomerase) (human) (UniProt P07237); experiment: co-immunoprecipitation with biotinylated polyclonal anti-PDI antibodies from lysates of resting and thrombin-treated human platelets, trypsin digestion, mass spectrometry; volcano plot thrombin versus no thrombin
[3] = target: T2, human platelet ERO1α (human), Q96HE7; experiment: co-immunoprecipitation of ERO1α from lysates of resting and thrombin-activated human platelets, mass spectrometry; volcano plot thrombin versus no thrombin; settings: remark: other sources report otherwise

Row | binding [1] | Binder | further results
1 | binds | RGS18 (protein, human, UniProt Q9NS28 1-235, looked up) single chain: METTLLFFSQINMCESKEKTFFKLIHGSGKEETSKEAKIRAKEKRNRLSLLVQKPEFHEDTRSSRSGHLAKETRVSPEEAVKWGESFDKLLSHRDGLEAFTRFLKTEFSEENIEFWIACEDFKKSKGPQQIHLKAKAIYEKFIQTDAPKEVNLDFHTKEVITNSITQPTLHSFDAAQSRVYQLMEQDSYTRFLKSDIYLDLMEGRPQRPTNLRRRSRSFTCNEFQDVQSDVAIWL | –
2 | binds | SERPINE2 (protein, human, UniProt P07093 20-398, looked up) single chain: SHFNPLSLEELGSNTGIQVFNQIVKSRPHDNIVISPHGIASVLGMLQLGADGRTKKQLAMVMRYGVNGVGKILKKINKAIVSKKNKDIVTVANAVFVKNASEIEVPFVTRNKDVFQCEVRNVNFEDPASACDSINAWVKNETRDMIDNLLSPDLIDGVLTRLVLVNAVYFKGLWKSRFQPENTKKRTFVAADGKSYQVPMLAQLSVFRCGSTSAPNDLWYNFIELPYHGESISMLIALPTESSTPLSAIIPHISTKTIDSWMSIMVPKRVQVILPKFTAVAQTDLKEPLKVLGITDMFDSSKANFAKITTGSENLHVSHILQKAKIEVSEDGTKASAATTAILIARSSPPWFIVDRPFLFFIRHNPTGAVLFMGQINKP | –
3 | binds | MYO1F (protein, human, UniProt O00160 1-1098, looked up) single chain: MGSKERFHWQSHNVKQSGVDDMVLLPQITEDAIAANLRKRFMDDYIFTYIGSVLISVNPFKQMPYFTDREIDLYQGAAQYENPPHIYALTDNMYRNMLIDCENQCVIISGESGAGKTVAAKYIMGYISKVSGGGEKVQHVKDIILQSNPLLEAFGNAKTVRNNNSSRFGKYFEIQFSRGGEPDGGKISNFLLEKSRVVMQNENERNFHIYYQLLEGASQEQRQNLGLMTPDYYYYLNQSDTYQVDGTDDRSDFGETLSAMQVIGIPPSIQQLVLQLVAGILHLGNISFCEDGNYARVESVDLLAFPAYLLGIDSGRLQEKLTSRKMDSRWGGRSESINVTLNVEQAAYTRDALAKGLYARLFDFLVEAINRAMQKPQEEYSIGVLDIYGFEIFQKNGFEQFCINFVNEKLQQIFIELTLKAEQEEYVQEGIRWTPIQYFNNKVVCDLIENKLSPPGIMSVLDDVCATMHATGGGADQTLLQKLQAAVGTHEHFNSWSAGFVIHHYAGKVSYDVSGFCERNRDVLFSDLIELMQTSEQAFLRMLFPEKLDGDKKGRPSTAGSKIKKQANDLVATLMRCTPHYIRCIKPNETKRPRDWEENRVKHQVEYLGLKENIRVRRAGFAYRRQFAKFLQRYAILTPETWPRWRGDERQGVQHLLRAVNMEPDQYQMGSTKVFVKNPESLFLLEEVRERKFDGFARTIQKAWRRHVAVRKYEEMREEASNILLNKKERRRNSINRNFVGDYLGLEERPELRQFLGKRERVDFADSVTKYDRRFKPIKRDLILTPKCVYVIGREKVKKGPEKGQVCEVLKKKVDIQALRGVSLSTRQDDFFILQEDAADSFLESVFKTEFVSLLCKRFEEATRRPLPLTFSDTLQFRVKKEGWGGGGTRSVTFSRGFGDLAVLKVGGRTLTVSVGDGLPKSSKPTRKGMAKGKPRRSSQAPTRAAPAPPRGMDRNGVPPSARGGPLPLEIMSGGGTHRPPRGPPSTSLGASRRPRARPPSEHNTEFLNVPDQGMAGMQRKRSVGQRPVPGVGRPKPQPRTHGPRCRALYQYVGQDVDELSFNVNEVIEILMEDPSGWWKGRLHGQEGLFPGNYVEKI | –
4 | – | GRAP2 (protein, human, UniProt O75791 1-330, looked up) single chain: MEAVAKFDFTASGEDELSFHTGDVLKILSNQEEWFKAELGSQEGYVPKNFIDIQFPKWFHEGLSRHQAENLLMGKEVGFFIIRASQSSPGDFSISVRHEDDVQHFKVMRDNKGNYFLWTEKFPSLNKLVDYYRTNSISRQKQIFLRDRTREDQGHRGNSLDRRSQGGPHLSGAVGEEIRPSMNRKLSDHPPTLPLQQHQHQPQPPQYAPAPQQLQQPPQQRYLQHHHFHQERRGGSLDINDGHCGTGLGSEMNAALMHRRHTDPVQLQAAGRVRWARALYDFEALEDDELGFHSGEVVEVLDSSNPSWWTGRLHNKLGLFPANYVAPMTR | binding [2]: binds
5 | – | PDIA3, P30101 (enzyme, human, UniProt P30101 25-505, looked up) single chain: SDVLELTDDNFESRISDTGSAGLMLVEFFAPWCGHCKRLAPEYEAAATRLKGIVPLAKVDCTANTNTCNKYGVSGYPTLKIFRDGEEAGAYDGPRTADGIVSHLKKQAGPASVPLRTEEEFKKFISDKDASIVGFFDDSFSEAHSEFLKAASNLRDNYRFAHTNVESLVNEYDDNGEGIILFRPSHLTNKFEDKTVAYTEQKMTSGKIKKFIQENIFGICPHMTEDNKDLIQGKDLLIAYYDVDYEKNAKGSNYWRNRVMMVAKKFLDAGHKLNFAVASRKTFSHELSDFGLESTAGEIPVVAIRTAKGEKFVMQEEFSRDGKALERFLQDYFDGNLKRYLKSEPIPESNDGPVKVVVAENFDEIVNNENKDVLIEFYAPWCGHCKNLEPKYKELGEKLSKDPNIVIAKMDATANDVPSPYEVRGFPTIYFSPANKKLNPKKYEGGRELSDFISYLQREATNPPVIQEEKPKKKKKAQEDL | binding [3]: binds

No constants are given. Whether binding was seen depends on the method and setting. In cells and extracts the contact can be indirect. A yes stands for co-enrichment or nearness to the bait. Other partners may have been found.
